{"source": "patent US20120244567A1", "about": "“HUMAN EMBRYONIC STEM CELLS FOR HIGH THROUGHOUT DRUG SCREENING” (BUCK INSTITUTE FOR RESEARCH ON AGING, priority 2009, published 2012)", "test_system": "hESCs and hESC-derived NSCs", "test": "Comparative ATP screening on hESCs and hESC-derived NSCs (ratio ESC/NSC or NSC/ESC)"}
{"smiles": "Cc1cc(/C=C/c2ccc3cc(N(C)C)ccc3[n+]2C)c(C)n1-c1ccccc1", "note": "[Pyrvinium Pamoate]", "values": [{"measurement": "ESC/NSC", "value": 85.91}]}
